From PubChem BioAssay record AID1053133 (Broad Institute, 2014).

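Plate-reader measure of the Venus reporter marking one vaccinia stage in infected cells (the cell line is not named here); read time unknown.
The test concentration is not given here.
Percent change in Venus reporter signal; lower (more negative) values mean stronger inhibition of that viral stage.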

Values are in %.
The controls that fix the scale are not given here.
Common to all entries: measured here: Venus reporter, other viral stage.
This is a side read-out of the assay, for part of the compounds, not drawn at random.

Compound,activity change (Venus) (%)
C[C@@H]1CN([C@@H](C)CO)C(=O)c2cc(-c3ccc(F)cc3)cnc2O[C@H]1CN(C)CC1CCCCC1,-48.38
C[C@@H]1CN([C@H](C)CO)C(=O)c2cc(C#CC3CCCCC3)cnc2O[C@H]1CN(C)S(=O)(=O)c1ccccc1,-36.6
C[C@@H]1CCCCO[C@H](CN(C)Cc2ccc3c(c2)OCO3)[C@H](C)CN([C@H](C)CO)C(=O)c2cc(NC(=O)Nc3ccccc3)ccc2O1,-55.65
O=C(C[C@H]1CC[C@H]2[C@@H](COC[C@H](O)CN2C(=O)Nc2cc(Cl)cc(Cl)c2)O1)N1CCCCC1,-38.02
O=C(Cc1ccccc1)N1CC(=O)N2[C@H](CO)[C@@H](c3ccc(C#Cc4ccccc4)cc3)[C@H]2C1,-26.19
COc1ccccc1CN1CC[C@@H]2[C@H](CO)Nc3ccc(-c4cccc(C(=O)N(C)C)c4)cc3[C@@H]21,-26.79
CCCNC(=O)N1CC(=O)N2[C@H](CO)[C@@H](c3ccc(C#Cc4ccc(F)cc4)cc3)[C@H]2C1,-25.86
OC[C@H]1[C@@H](c2ccc(-c3ccc(F)cc3)cc2)[C@@H]2CN(CCC(F)(F)F)CCCCN12,-51.15
C[C@H]1CCCCO[C@H](CN(C)C(=O)Nc2ccc(F)cc2)[C@@H](C)CN([C@@H](C)CO)C(=O)c2cc(NS(=O)(=O)c3cccs3)ccc2O1,-27.67
C/C=C/c1ccc([C@@H]2[C@@H](CO)N3CCCCN(C(=O)Nc4ccc(F)cc4)C[C@@H]23)cc1,-42.39
COc1ccc(C(=O)N2C[C@@H]3[C@H](c4ccccc42)[C@@H](CO)N3Cc2ccc(Cl)cc2)cc1,-31.48
CC(C)NC(=O)Nc1ccc2c(c1)C(=O)N([C@@H](C)CO)C[C@@H](C)[C@H](CN(C)Cc1ccc(C(F)(F)F)cc1)OCCCC[C@H](C)O2,-55.56
CCCC#Cc1ccc([C@H]2[C@@H](CO)N3CCCCN(C(=O)c4ccc5c(c4)OCO5)C[C@H]23)cc1,-49.94
C[C@@H]1CN([C@H](C)CO)C(=O)c2cc(N(C)C)ccc2O[C@@H]1CN(C)Cc1ccc(C(=O)Nc2ccccc2N)cc1,-36.35
Cc1noc(C)c1S(=O)(=O)Nc1ccc2c(c1)C(=O)N([C@@H](C)CO)C[C@H](C)[C@H](CN(C)CC1CCCCC1)OCCCC[C@@H](C)O2,-45.77
COc1ccc(C#Cc2ccc3c(c2)O[C@@H](CN(C)C)[C@H](C)CN([C@H](C)CO)S3(=O)=O)cc1,-62.03
C[C@H](CO)N1C[C@H](C)[C@@H](CN(C)Cc2ccc(F)cc2)Oc2ncc(-c3ccccc3F)cc2C1=O,-33.23
C[C@@H]1CN([C@@H](C)CO)S(=O)(=O)c2ccc(C#CC3CCCC3)cc2O[C@H]1CN(C)Cc1cncnc1,-62.95
C[C@@H]1CCCCO[C@@H](CN(C)C(=O)C2CCCCC2)[C@@H](C)CN([C@@H](C)CO)C(=O)c2cc(NS(=O)(=O)c3ccc(Cl)cc3)ccc2O1,-44.92
O=C(Nc1cccc(F)c1)N1CCCCN2[C@H](C1)[C@@H](c1ccc(-c3ccccc3F)cc1)[C@@H]2CO,-55.03
C[C@H]1CN([C@@H](C)CO)S(=O)(=O)c2ccc(C#CCC3CCCC3)cc2O[C@@H]1CN(C)C(=O)CC1CC1,-74.19
C[C@H]1CN([C@@H](C)CO)C(=O)Cc2cc(NC(=O)Nc3ccccc3)ccc2O[C@@H]1CN(C)Cc1ccccc1,-54.26
COc1ccccc1NC(=O)N1CCCCN2[C@H](CO)[C@H](c3ccc(-c4cccc(C#N)c4)cc3)[C@H]2C1,-55.63
C[C@@H]1CN([C@H](C)CO)S(=O)(=O)c2ccc(C3=CCCCC3)cc2O[C@@H]1CN(C)Cc1ccccc1F,-68.79
CCCC#Cc1ccc([C@H]2[C@H]3CN(S(=O)(=O)Cc4ccccc4)CCCCN3[C@H]2CO)cc1,-44.56
COc1ccc2c3c(n(C)c2c1)[C@@H](CO)N(Cc1ccc(F)cc1)CC31CCN(C)CC1,-33.47
C[C@@H]1CCCCO[C@@H](CN(C)S(=O)(=O)c2ccccc2)[C@H](C)CN([C@@H](C)CO)C(=O)c2cc(NS(=O)(=O)c3ccc(Cl)cc3)ccc2O1,-44.94
CO[C@@H]1CN(C)C(=O)c2ccc(NC(=O)c3nc4ccccc4s3)cc2OC[C@@H](C)NC[C@@H]1C,-35.81
C[C@@H]1CN([C@H](C)CO)S(=O)(=O)c2ccc(-c3cccc(C#N)c3)cc2O[C@H]1CN(C)Cc1cccc(F)c1,-24.27
C[C@@H]1CN([C@H](C)CO)C(=O)c2cc(C#CC3CCCCC3)cnc2O[C@H]1CN(C)Cc1cccnc1,-25.37
C[C@H]1CN([C@@H](C)CO)C(=O)Cc2cc(NC(=O)Nc3ccc(F)cc3)ccc2O[C@H]1CN(C)Cc1ccc(Cl)c(Cl)c1,-62.94
COc1ccccc1-c1ccc2c(c1)O[C@@H](CN(C)S(=O)(=O)c1ccc(F)cc1)[C@@H](C)CN([C@@H](C)CO)S2(=O)=O,-29.35
C[C@H](CO)N1C[C@H](C)[C@H](CN(C)Cc2ccccc2)Oc2ccc(NS(=O)(=O)c3ccccc3)cc2CC1=O,-34.83
CC(C)(C)[S@](=O)N1Cc2cc(C(=O)NCc3ccc4c(c3)OCO4)nc(-c3cccc(-c4ccncc4)c3)c2[C@@H]1CCO,-22.22
O=C(Nc1ccccc1)N1CCCCN2[C@H](CO)[C@H](c3ccc(-c4ccccc4F)cc3)[C@H]2C1,-76.55
N#Cc1cccc(-c2ccc([C@@H]3[C@@H](CO)N4CCCCN(C(=O)Nc5ccccc5)C[C@@H]34)cc2)c1,-19.36

Some entries from above, unchanged:

Compound	activity change (Venus) (%)
C[C@@H]1CCCCO[C@H](CN(C)Cc2ccc3c(c2)OCO3)[C@H](C)CN([C@H](C)CO)C(=O)c2cc(NC(=O)Nc3ccccc3)ccc2O1	-55.65
O=C(Cc1ccccc1)N1CC(=O)N2[C@H](CO)[C@@H](c3ccc(C#Cc4ccccc4)cc3)[C@H]2C1	-26.19
C[C@@H]1CN([C@H](C)CO)C(=O)c2cc(C#CC3CCCCC3)cnc2O[C@H]1CN(C)S(=O)(=O)c1ccccc1	-36.6